Results deposited as PubChem BioAssay AID1224830 (NIAID, 2016)
Here is an unselected part of about 18,000 deposited reagents. About 2,900 of all reagents (16%) were called active. 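Calls are made per well; low scores hint the gene aids the LPS response, high scores that it dampens it.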 Repeated entries: four replicate wells of each siRNA pool.

Test: 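Host factors that control LPS-induced TNF expression in human macrophages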 (primary screen)
System: human THP-1 monocytic leukaemia cells, TNF dual-luciferase reporter clone, PMA-differentiated to macrophage-like cells
Reagent: siRNA pool against human genes, 50 nM
Duration: LPS for 4 h, given about 3 days after siRNA transfection
Challenge: bacterial LPS (TLR4 ligand), 10 ng/ml
Measurement: 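Ratio of firefly to renilla light, scaled to the plate median and expressed as a robust z-score per replicate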
Direction: TNF reporter robust z-score: higher = stronger TNF reporter response to LPS
Active means: 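a well is active when its z-score exceeds 2.8 or falls below -1.5; control wells carry no call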

no.	target	TNF reporter robust z-score	Call
1	MACIR (GeneID 90355)	1.55	inactive
2	MACIR (GeneID 90355)	1.42	inactive
3	MACIR (GeneID 90355)	0.46	inactive
4	MACIR (GeneID 90355)	0.99	inactive
5	SLC39A3 (GeneID 29985)	0.31	inactive
6	SLC39A3 (GeneID 29985)	-0.11	inactive
7	SLC39A3 (GeneID 29985)	-0.42	inactive
8	SLC39A3 (GeneID 29985)	-0.32	inactive
9	ZPR1 (GeneID 8882)	-0.76	inactive
10	ZPR1 (GeneID 8882)	-0.84	inactive
11	ZPR1 (GeneID 8882)	0.01	inactive
12	ZPR1 (GeneID 8882)	0.03	inactive
13	FAM162A (GeneID 26355)	0.11	inactive
14	FAM162A (GeneID 26355)	0.76	inactive
15	FAM162A (GeneID 26355)	1.06	inactive
16	FAM162A (GeneID 26355)	1.53	inactive
17	MAPK11 (GeneID 5600)	2.62	inactive
18	MAPK11 (GeneID 5600)	-0.67	inactive
19	MAPK11 (GeneID 5600)	0.79	inactive
20	MAPK11 (GeneID 5600)	1.88	inactive
21	LRRC8C (GeneID 84230)	1.01	inactive
22	LRRC8C (GeneID 84230)	-0.88	inactive
23	LRRC8C (GeneID 84230)	-0.68	inactive
24	LRRC8C (GeneID 84230)	0.26	inactive
25	SEMA4G (GeneID 57715)	0.6	inactive
26	SEMA4G (GeneID 57715)	-0.02	inactive
27	SEMA4G (GeneID 57715)	0.22	inactive
28	SEMA4G (GeneID 57715)	0.64	inactive
29	GPR132 (GeneID 29933)	0.28	inactive
30	GPR132 (GeneID 29933)	0.61	inactive
31	GPR132 (GeneID 29933)	0.5	inactive
32	GPR132 (GeneID 29933)	1.69	inactive
33	GPR15LG (GeneID 387695)	-1.09	inactive
34	GPR15LG (GeneID 387695)	-1.21	inactive
35	GPR15LG (GeneID 387695)	-1.95	active
36	GPR15LG (GeneID 387695)	-1.51	active
37	BSCL2 (GeneID 26580)	0.03	inactive
38	BSCL2 (GeneID 26580)	-0.16	inactive
39	BSCL2 (GeneID 26580)	-1.03	inactive
40	BSCL2 (GeneID 26580)	-0.89	inactive
41	TUBGCP6 (GeneID 85378)	0.06	inactive
42	TUBGCP6 (GeneID 85378)	1.72	inactive
43	TUBGCP6 (GeneID 85378)	0.2	inactive
44	TUBGCP6 (GeneID 85378)	-0.4	inactive
45	LRRC75A (GeneID 388341)	1.37	inactive
46	LRRC75A (GeneID 388341)	-0.5	inactive
47	LRRC75A (GeneID 388341)	-0.37	inactive
48	LRRC75A (GeneID 388341)	1.57	inactive
49	HTT (GeneID 3064)	0.57	inactive
50	HTT (GeneID 3064)	2.01	inactive
51	HTT (GeneID 3064)	0.8	inactive
52	HTT (GeneID 3064)	1.82	inactive

Part of the list above, set out differently.
| target | TNF reporter robust z-score | Call |
| --- | --- | --- |
| LRRC8C (GeneID 84230) | -0.68 | inactive |
| LRRC8C (GeneID 84230) | 0.26 | inactive |
| SEMA4G (GeneID 57715) | 0.6 | inactive |
| SEMA4G (GeneID 57715) | -0.02 | inactive |
| SEMA4G (GeneID 57715) | 0.22 | inactive |
| SEMA4G (GeneID 57715) | 0.64 | inactive |
| GPR132 (GeneID 29933) | 0.28 | inactive |
| GPR132 (GeneID 29933) | 0.61 | inactive |
| GPR132 (GeneID 29933) | 0.5 | inactive |
| GPR132 (GeneID 29933) | 1.69 | inactive |
| GPR15LG (GeneID 387695) | -1.09 | inactive |
| GPR15LG (GeneID 387695) | -1.21 | inactive |
| GPR15LG (GeneID 387695) | -1.95 | active |
| GPR15LG (GeneID 387695) | -1.51 | active |

The list goes on.
no.	target	TNF reporter robust z-score	Call
53	SLC35A2 (GeneID 7355)	-0.43	inactive
54	SLC35A2 (GeneID 7355)	0.7	inactive
55	SLC35A2 (GeneID 7355)	-0.68	inactive
56	SLC35A2 (GeneID 7355)	1.14	inactive
57	ARMCX2 (GeneID 9823)	-1.02	inactive
58	ARMCX2 (GeneID 9823)	-0.61	inactive
59	ARMCX2 (GeneID 9823)	0.56	inactive
60	ARMCX2 (GeneID 9823)	-0.33	inactive
61	ARHGAP42 (GeneID 143872)	-0.55	inactive
62	ARHGAP42 (GeneID 143872)	-0.44	inactive
63	ARHGAP42 (GeneID 143872)	1.08	inactive
64	ARHGAP42 (GeneID 143872)	1.98	inactive
65	ANO7 (GeneID 50636)	-1.57	active
66	ANO7 (GeneID 50636)	-1.26	inactive
67	ANO7 (GeneID 50636)	-1.45	inactive
68	ANO7 (GeneID 50636)	-1.02	inactive
69	CACNA1I (GeneID 8911)	-1.29	inactive
70	CACNA1I (GeneID 8911)	-0.85	inactive
71	CACNA1I (GeneID 8911)	-0.33	inactive
72	CACNA1I (GeneID 8911)	-0.35	inactive
73	NCF4 (GeneID 4689)	0.16	inactive
74	NCF4 (GeneID 4689)	0.26	inactive
75	NCF4 (GeneID 4689)	0.46	inactive
76	NCF4 (GeneID 4689)	-0.15	inactive
77	OTUD5 (GeneID 55593)	-1.45	inactive
78	OTUD5 (GeneID 55593)	-0.63	inactive
79	OTUD5 (GeneID 55593)	-0.82	inactive
80	OTUD5 (GeneID 55593)	-1.38	inactive
81	POGLUT3 (GeneID 143888)	-0.57	inactive
82	POGLUT3 (GeneID 143888)	1.48	inactive
83	POGLUT3 (GeneID 143888)	2.21	inactive
84	POGLUT3 (GeneID 143888)	0.8	inactive
85	FGF13 (GeneID 2258)	-0.36	inactive
86	FGF13 (GeneID 2258)	0.7	inactive
87	FGF13 (GeneID 2258)	0.22	inactive
88	FGF13 (GeneID 2258)	-0.11	inactive
89	AK2 (GeneID 204)	-0.77	inactive
90	AK2 (GeneID 204)	-0.2	inactive
91	AK2 (GeneID 204)	-0.61	inactive
92	AK2 (GeneID 204)	0.49	inactive
93	PDE11A (GeneID 50940)	1.89	inactive
94	PDE11A (GeneID 50940)	1.44	inactive
95	PDE11A (GeneID 50940)	0.31	inactive
96	PDE11A (GeneID 50940)	-0.02	inactive
97	RARA (GeneID 5914)	-0.24	inactive
98	RARA (GeneID 5914)	-0.49	inactive
99	RARA (GeneID 5914)	-0.3	inactive
100	RARA (GeneID 5914)	0.29	inactive
101	TCEANC2 (GeneID 127428)	-1.5	inactive
102	TCEANC2 (GeneID 127428)	-1.63	active
103	TCEANC2 (GeneID 127428)	-1.27	inactive
104	ACTR2 (GeneID 10097)	-1.71	active
105	ACTR2 (GeneID 10097)	-1.46	inactive
106	ACTR2 (GeneID 10097)	-1.69	active
107	ACTR2 (GeneID 10097)	-0.43	inactive
108	YPEL3 (GeneID 83719)	1.14	inactive
109	YPEL3 (GeneID 83719)	0.72	inactive
110	YPEL3 (GeneID 83719)	0.2	inactive
111	YPEL3 (GeneID 83719)	0.8	inactive
